For at least one compound, name, drawing or mass did not settle the structure.
Test system: cancer cell lines classified IM, MSL, M
Experiment: PRISM screen compound sensitivity correlated with IM, MSL and M subtype of cell lines (101 gene signature)
Assay type: cell-based

SMILES: C[n+]1ccccc1/C=N/O [pralidoxime-chloride]
- TNBCType train: MSL
